Results deposited as PubChem BioAssay AID493246 (Drosophila RNAi Screening Center, 2011)
Assay: 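Genes fly cells need to grow and stay alive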 (primary screen). Cell system: Drosophila Kc and S2R+ cells. Knock-down reagent: long dsRNA against Drosophila genes. Measured: 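Raw, unnormalised count of remaining cells in each well; per-plate z-scores of cell number underlie the calls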. Direction: Kc cell number and S2R+ cell number: higher = more cells remaining. Active means: 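Counted as a hit if cell number falls by a z-score of at least 3 within its plate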.
In all, the deposit lists about 21,000 reagents; shown is an unselected part of those that have a named target and a result. Of all reagents, 429 (2%) are marked active. 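Values are raw and not normalised between plates; calls rest on per-plate z-scores that were not deposited.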 Unmarked entries are inactive. Not given: the amount of reagent, the time to read-out.

| Gene | dsRNA | Kc cell number, rep 1 | Kc cell number, rep 2 | S2R+ cell number, rep 1 | S2R+ cell number, rep 2 |
| --- | --- | --- | --- | --- | --- |
| CG8508 | DRSC16436 | 1.62e6 | 1.69e6 | 1.38e6 | 1.48e6 |
| Dh31-R | DRSC06647 | 1.49e6 | 1.63e6 | 1.21e6 | 1.34e6 |
| Dh31-R | DRSC06669 | 1.60e6 | 1.66e6 | 1.35e6 | 1.49e6 |
| CG18649 | DRSC10334 | 1.23e6 | 1.38e6 | 1.24e6 | 1.28e6 |
| CG10376 | DRSC02049 | 1.27e6 | 1.33e6 | 1.09e6 | 1.09e6 |
| CG5866 | DRSC15900 | 1.25e6 | 1.50e6 | 1.06e6 | 1.17e6 |
| Uros1 | DRSC18191 | 5.76e5 | – | 8.51e5 | – |
| CG10477 | DRSC09732 | 1.61e6 | 1.59e6 | 1.06e6 | 1.10e6 |
| Pgant9 | DRSC05621 | 6.23e5 | – | 7.53e5 | – |
| Pgant9 | DRSC06584 | 1.68e6 | 1.67e6 | 1.18e6 | 1.28e6 |
| Pgant9 | DRSC07185 | 1.74e6 | 1.69e6 | 1.29e6 | 1.43e6 |
| Pgant9 | DRSC07186 | 1.82e6 | 1.80e6 | 1.30e6 | 1.44e6 |
| Pgant9 | DRSC07187 | 1.95e6 | 2.00e6 | 1.20e6 | 1.42e6 |
| Pgant9 | DRSC07189 | 1.73e6 | 1.75e6 | 1.18e6 | 1.39e6 |
| CG31681 | DRSC00107 | 1.61e6 | 1.61e6 | 1.00e6 | 1.18e6 |
| VhaAC39-2 | DRSC15609 | 1.59e6 | 1.65e6 | 1.07e6 | 1.18e6 |
| Esyt2 | DRSC16082 | 1.52e6 | 1.64e6 | 1.14e6 | 1.22e6 |
| Cpr65Av | DRSC09727 | 1.64e6 | 1.60e6 | 1.11e6 | 1.18e6 |
| CG1344 | DRSC04837 | 1.37e6 | 1.42e6 | 1.09e6 | 1.14e6 |
| org-1 | DRSC18810 | 1.52e6 | 1.63e6 | 7.40e5 | 8.42e5 |
| CG5122 | DRSC02816 | 1.57e6 | 1.67e6 | 1.27e6 | 1.43e6 |
| CG5937 | DRSC18392 | 1.65e6 | 1.62e6 | 1.02e6 | 1.08e6 |
| opa | DRSC12384 | 1.77e6 | 2.15e6 | 1.26e6 | 1.31e6 |
| CG13047 | DRSC09928 | 1.33e6 | 1.42e6 | 1.33e6 | 1.40e6 |
| M6 | DRSC11869 | 1.41e6 | 1.67e6 | 1.26e6 | 1.31e6 |
| Sox15 | DRSC07555 | 1.38e6 | 1.48e6 | 9.42e5 | 1.11e6 |
| spag | DRSC04717 | 1.52e6 | 1.62e6 | 1.34e6 | 1.31e6 |
| CG31223 | DRSC15115 | 1.63e6 | 1.60e6 | 1.27e6 | 1.32e6 |
| CG6333 | DRSC10626 | 1.52e6 | 1.66e6 | 1.37e6 | 1.50e6 |
| CG12479 | DRSC19459 | 1.55e6 | 1.58e6 | 1.05e6 | 1.18e6 |
| Polr3E | DRSC11880 | 1.58e6 | 1.58e6 | 1.23e6 | 1.34e6 |
| IleRS-m | DRSC10506 | 1.25e6 | 1.41e6 | 1.26e6 | 1.34e6 |
| Cpr49Ac | DRSC07199 | 1.44e6 | 1.49e6 | 1.17e6 | 1.23e6 |
| Cad74A | DRSC10636 | 1.56e6 | 1.44e6 | 1.27e6 | 1.39e6 |
| stx | DRSC18442 | 7.73e5 (active) | 8.89e5 | 6.23e5 | 7.26e5 |
| stx | DRSC18443 | 1.53e6 | 1.53e6 | 8.95e5 | 1.02e6 |
| CG8003 | DRSC10946 | 1.28e6 | 1.37e6 | 1.29e6 | 1.07e6 |
| nclb | DRSC07009 | 1.67e6 | 1.65e6 | 1.43e6 | 1.67e6 |
| Adi1 | DRSC10945 | 1.47e6 | 1.53e6 | 1.26e6 | 1.37e6 |
| CG4586 | DRSC18373 | 5.76e5 | – | 9.61e5 | – |
| Cpr51A | DRSC05969 | 1.50e6 | 1.48e6 | 1.32e6 | 1.37e6 |
| Diap1 | DRSC11404 | 1.88e5 (active) | 1.91e5 | 1.78e5 | 2.51e5 |
| CG17027 | DRSC10238 | 1.72e6 | 1.66e6 | 1.45e6 | 1.43e6 |
| Nepl16 | DRSC14650 | 1.45e6 | 1.50e6 | 9.66e5 | 1.03e6 |
| faf | DRSC16942 | 1.56e6 | 1.53e6 | 9.77e5 | 1.11e6 |
| CG18294 | DRSC09891 | 1.29e6 | 1.43e6 | 1.24e6 | 1.27e6 |
| CG3625 | DRSC00008 | 1.71e6 | 1.65e6 | 1.05e6 | 1.19e6 |
| CG3625 | DRSC00621 | 1.27e6 | 1.33e6 | 5.85e5 | 7.02e5 |
| CG15366 (retired record) | DRSC18039 | 1.69e6 | 1.39e6 | 1.15e6 | 1.31e6 |
| Vps28 | DRSC06168 | 1.20e6 | 1.35e6 | 1.03e6 | 1.07e6 |
| woc | DRSC15928 | 5.54e5 | – | 7.67e5 | – |
| Tbcb | DRSC06067 | 1.41e6 | 1.39e6 | 1.07e6 | 1.10e6 |
| TwdlQ | DRSC14745 | 1.48e6 | 1.49e6 | 8.95e5 | 9.60e5 |
| CG14564 | DRSC11725 | 1.34e6 | 1.33e6 | 1.30e6 | 1.38e6 |
| spi | DRSC03618 | 1.63e6 | 1.68e6 | 1.37e6 | 4.65e5 |
| CG14346 | DRSC00376 | 1.51e6 | 1.53e6 | 1.09e6 | 1.23e6 |
| RpS11 | DRSC07289 | 1.08e6 | 1.17e6 | 8.78e5 | 9.58e5 |
| Msr-110 | DRSC11227 | 1.12e6 | 1.03e6 | 1.14e6 | 5.80e5 |
| Shawl | DRSC02209 | 1.69e6 | 1.71e6 | 1.18e6 | 1.30e6 |
| Shawl | DRSC02748 | 1.64e6 | 1.68e6 | 1.18e6 | 1.31e6 |

Sorted by “Kc cell number, rep 1” (lowest first): some entries from above.
| Gene | dsRNA | Kc cell number, rep 1 | Kc cell number, rep 2 | S2R+ cell number, rep 1 | S2R+ cell number, rep 2 |
| --- | --- | --- | --- | --- | --- |
| Uros1 | DRSC18191 | 5.76e5 | – | 8.51e5 | – |
| Pgant9 | DRSC05621 | 6.23e5 | – | 7.53e5 | – |
| CG5866 | DRSC15900 | 1.25e6 | 1.50e6 | 1.06e6 | 1.17e6 |
| CG10376 | DRSC02049 | 1.27e6 | 1.33e6 | 1.09e6 | 1.09e6 |
| CG10477 | DRSC09732 | 1.61e6 | 1.59e6 | 1.06e6 | 1.10e6 |
| Pgant9 | DRSC06584 | 1.68e6 | 1.67e6 | 1.18e6 | 1.28e6 |
| Pgant9 | DRSC07185 | 1.74e6 | 1.69e6 | 1.29e6 | 1.43e6 |
| Pgant9 | DRSC07186 | 1.82e6 | 1.80e6 | 1.30e6 | 1.44e6 |
